# Strings that start with PEPTIDE1 are HELM notation: dots part the residues, brackets hold end groups and non-standard residues. * marks the point of attachment. Cbz = O=C(OCc1ccccc1)*; OBn = c1ccc(CO*)cc1
# Legend:
# peptide synthesis = settings: of theory
# [1] = general procedure: Boc solid-phase peptide synthesis; benzhydrylamine resin; symmetrical anhydride; DCC-HOBt for arginine; settings: whole synthesis, scale 5 mmoles
# [2] = Boc solid-phase peptide synthesis; p-MBHA; symmetrical anhydride; DCC-HOBt for arginine; settings: whole synthesis, scale 0.45 mmol; run 1
# [3] = general procedure: Boc solid-phase peptide synthesis; p-MBHA; symmetrical anhydride; DCC-HOBt for arginine; settings: whole synthesis, scale 0.45 mmol
substance,measurement,setting,value
Boc-Pro-Asp(OBzl)-Pro-Phe-NH2,step yield,peptide synthesis; coupling step,95%
Cbz-RPD(OBn)PF-NH2,step yield,peptide synthesis; coupling step,80%
PEPTIDE1{[Decanoyl].R.P.D.P.F.[am]}$$$$V2.0,crude mass,[1],1.8 g
same,isolated mass,[1],1.19 g
PEPTIDE1{[ac].R.P.D.P.F.[am]}$$$$V2.0,crude mass,[2],0.248 g
same,isolated mass,[3],206 mg
same,crude mass,[3]; run 1,0.240 g
same,step yield,peptide synthesis; late stage modification step,77.9%
